Data as given in PubChem BioAssay AID1159578 (Peter MacCallum Cancer Centre, 2015).
Screen: 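Knock-downs that alter how fast lymphatic endothelial cells migrate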 (primary screen). Cells: human lymphatic endothelial cells. Knock-down reagent: siRNA pool against human genes, 40 nM. Duration: 48 h after transfection. Detection: 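High-content imaging of dye-stained cells in a scratch assay measures filled wound area and nuclei per well; duplicate means given as ratio to mock and robust z-score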. Direction: migration robust z-score: higher = faster migration into the scratch; nuclei per well: higher = more cells in the well. Rule for the call: 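Migration changed when robust z exceeds 2 or falls below -2 and mean nuclei number is at least 3300; otherwise not called changed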. Calls: active = migration changed; inactive = no migration change, or too few cells.
This is a random part of about 18,000 reagents. About 1,030 of them (5.7%) count as active. 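Inactive calls also include pools with fewer than 3300 nuclei, whose migration was not assessed.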 Raw values are not corrected between plates. Further read-outs or replicates are left out here.

Silencing of YWHAB (GeneID 7529) resulted in: migration robust z-score 0.64; migration class with cell-count check migration z between -2 and 2; enough cells; nuclei per well, duplicate mean 5721; inactive.
ZNF404 (GeneID 342908) scored migration robust z-score 0.47; migration class with cell-count check migration z between -2 and 2; enough cells; nuclei per well, duplicate mean 7052; inactive.
With knock-down of ITPR1 (GeneID 3708), the record shows migration robust z-score 2.34; migration class with cell-count check migration z above 2; enough cells; nuclei per well, duplicate mean 5870; active.
Against TMEM223 (GeneID 79064) the deposit lists migration robust z-score 0.88; migration class with cell-count check migration z between -2 and 2; enough cells; nuclei per well, duplicate mean 5966; inactive.
After knock-down of LIPI (GeneID 149998) the results were migration robust z-score 1.38; migration class with cell-count check migration z between -2 and 2; enough cells; nuclei per well, duplicate mean 5540; inactive.
After knock-down of CSTF3 (GeneID 1479), the record shows migration robust z-score -0.94; migration class with cell-count check migration z between -2 and 2; enough cells; nuclei per well, duplicate mean 5387; inactive.
Knock-down of RPS6KA6 (GeneID 27330) gave: migration robust z-score 0.54; migration class with cell-count check migration z between -2 and 2; enough cells; nuclei per well, duplicate mean 4965; inactive.
After knock-down of HLA-B (GeneID 3106), the screen gave migration robust z-score -0.47; migration class with cell-count check migration z between -2 and 2; enough cells; nuclei per well, duplicate mean 3976; inactive.
Silencing of ZBTB46 (GeneID 140685) resulted in: migration robust z-score -1.02; migration class with cell-count check migration z between -2 and 2; enough cells; nuclei per well, duplicate mean 5010; inactive.
Against TIMD4 (GeneID 91937), the values are migration robust z-score 0.38; migration class with cell-count check migration z between -2 and 2; enough cells; nuclei per well, duplicate mean 5300; inactive.
After knock-down of TFPI (GeneID 7035), the screen gave migration robust z-score 0.86; migration class with cell-count check migration z between -2 and 2; enough cells; nuclei per well, duplicate mean 6696; inactive.
With knock-down of LSMEM1 (GeneID 286006), the screen gave migration robust z-score 0.36; migration class with cell-count check migration z between -2 and 2; enough cells; nuclei per well, duplicate mean 5440; inactive.
Against NDUFS4 (GeneID 4724), the entry reads migration robust z-score -0.13; migration class with cell-count check migration z between -2 and 2; enough cells; nuclei per well, duplicate mean 4362; inactive.
Against LCMT1 (GeneID 51451) the deposit lists migration robust z-score 0.54; migration class with cell-count check migration z between -2 and 2; enough cells; nuclei per well, duplicate mean 5782; inactive.
Knock-down of C22orf23 (GeneID 84645) gave: migration robust z-score 1.67; migration class with cell-count check migration z between -2 and 2; enough cells; nuclei per well, duplicate mean 4422; inactive.
With knock-down of TPX2 (GeneID 22974), the record shows migration robust z-score -0.38; migration class with cell-count check under 3300 nuclei; migration not judged; nuclei per well, duplicate mean 3125; inactive.
Silencing of SLC12A2 (GeneID 6558) came out at: migration robust z-score -0.8; migration class with cell-count check migration z between -2 and 2; enough cells; nuclei per well, duplicate mean 5438; inactive.
ATP1B1 (GeneID 481) showed migration robust z-score 1.04; migration class with cell-count check migration z between -2 and 2; enough cells; nuclei per well, duplicate mean 6294; inactive.
For SRSF9 (GeneID 8683), the values are migration robust z-score 0.54; migration class with cell-count check migration z between -2 and 2; enough cells; nuclei per well, duplicate mean 5734; inactive.
Against SLC30A1 (GeneID 7779), the entry reads migration robust z-score 0.16; migration class with cell-count check migration z between -2 and 2; enough cells; nuclei per well, duplicate mean 5615; inactive.
Knock-down of CCDC117 (GeneID 150275) gave: migration robust z-score -0.22; migration class with cell-count check migration z between -2 and 2; enough cells; nuclei per well, duplicate mean 3865; inactive.

Hits (from the list above):
ITPR1 (GeneID 3708) — migration robust z-score: 2.34; migration class with cell-count check: migration z above 2; enough cells; nuclei per well, duplicate mean: 5870; activity call: active
